The values below come from PubChem BioAssay AID2685 (National Center for Advancing Translational Sciences (NCATS), 2010).

This is one part of the list. Further columns of the screen follow, without active or inactive calls. Compounds called inactive in the main read-out are mostly missing here. Words in brackets tell the shape of the fitted curve; partial curves, single points and poor fits give uncertain potencies.

For orientation: AC50 means the midpoint of the concentration-response curve, whichever way the signal moves.

The nature of this test: qHTS Assay for Lipid Storage Modulators in Drosophila S3 Cells.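 On cell number change: cells counted by Cell Tracker Red CMTPX staining in the red channel.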 The settings on record: BODIPY lipid droplet fluorescence, 18-24 h; for cell number change: measured here: cell count max response, cells fed with added oleic acid. Put shortly:
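Drosophila S3 cells got compounds at several concentrations plus oleic acid (400 uM solution). Laser-scanning cytometry with 488 nm excitation read lipid droplets at 500-530 nm and cells at 575-640 nm. Percent activity was relative to 20 uM Triacsin C.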
On the technique in general: Quantitative high-throughput screening tests each substance at several concentrations.

The mark [1] stands for this setting: measured here: lipid fluorescence (Fed channel) AC50, cells fed with added oleic acid.
Where [2] appears, read: measured here: cell number channel AC50, cells fed with added oleic acid.

Regarding `C/C(Cn1nnc([N+](=O)[O-])n1)=N\NC(=O)c1cccc(Cl)c1`, the cell number change came to 9.61%. Further, the AC50 under setting [1] was 0.0651 µM [rising, full curve, poor fit]. Regarding `O=C(Nc1cc2c(cc1C(=O)O)OCCCO2)c1ccc(C(F)(F)F)cc1`, the cell number change is -14.1%.

As for `CN1CCN(C2=Cc3ccccc3Sc3cc(F)c(F)cc32)CC1`, the cell number change was -63.1%. In addition, under setting [2], the AC50 is 16.4 µM [falling, single point]. The AC50 under setting [1] is 23.1 µM [falling, single point]. `O=c1c2[nH]cnc2n(-c2cccc(Br)c2)c(=O)n1Cc1ccccc1`: the cell number change amounted to 23.7%. In addition, under setting [1], the half-maximal activity concentration (AC50) was 2.06 µM [rising, partial curve].

Regarding `COC(=O)c1ccc(C2/C(=C(\O)c3ccc4c(c3)OCCO4)C(=O)C(=O)N2CCCN2CCOCC2)cc1` (stereo not drawn), the cell number change was -3.54%. Also, under setting [1], the concentration at half-maximal activity (AC50) was 6.51 µM [falling, single point]. `CCOC(=O)c1cnc(SCc2cccc(C)c2)nc1N`: the cell number change turned out to be 66.2%. Further, the half-maximal activity concentration (AC50) under setting [1] was 29.1 µM [rising, single point].

For `COC(=O)N/N=C/c1cc(Cl)cc(Cl)c1OCc1ccc(F)cc1`, under setting [1], the AC50 is 0.231 µM [rising, full curve, poor fit]. Turning to `O=S(=O)(c1ccccc1)N1CCCC1c1nc2ccccc2s1` (stereo not drawn), the cell number change turned out to be 6.03%. Moreover, the AC50 under setting [1] was 6.51 µM [rising, single point]. As to `O=C(N[C@@H](Cc1ccccc1)C(=O)O)c1cccnc1`, the cell number change turned out to be 0.338%. For the same compound, the AC50 under setting [1] is 0.00517 µM [falling, full curve]. `CCOc1ccc(NC(=O)c2cccc(-n3cnnn3)c2)cc1`: the cell number change was found to be 25.8%. In addition, the concentration at half-maximal activity (AC50) under setting [2] was 0.0731 µM [rising, full curve, poor fit]. As to `CC1(C)OC(=O)C(=NNc2ccccc2[N+](=O)[O-])C(=O)O1`, the cell number change was determined as 2.92%. Also, the half-maximal activity concentration (AC50) under setting [2] was 4.61 µM [rising, single point]. Further, the AC50 under setting [1] is 3.26 µM [rising, single point]. Consider `CC(=O)c1ccc(NC(=O)CN2CCC(C(=O)c3ccc4c(c3)OCCO4)CC2)cc1`, for which the cell number change was determined as 4.78%. Also, the AC50 under setting [1] is 2.91 µM [rising, single point]. As for `CC(NC(=O)C(C)N1c2cccc3cccc(c23)S1(=O)=O)c1ccccc1` (stereo not drawn), the cell number change worked out at 9.21%.

On to `Cc1ccccc1N1CCN(C2CCCN(C(=O)c3ccc(Cl)s3)C2)CC1` (stereo not drawn), for which the cell number change was -9.63%.

Turning to `Cn1nccc1C(=O)NC1CCN(Cc2ccccc2)CC1`, the cell number change stood at 7.74%. Also, the concentration at half-maximal activity (AC50) under setting [1] was 1.84 µM [rising, full curve, poor fit]. As to `CC(C)CC(c1nnnn1C1CCCCC1)N1CCN(C(=O)c2ccco2)CC1` (stereo not drawn), the cell number change was 3.85%. On to `O=C(/C=C/c1ccnc2ccccc12)c1cccs1`, for which the cell number change was 7.64%. Besides, under setting [2], the AC50 is 3.66 µM [falling, single point]. For the same compound, the half-maximal activity concentration (AC50) under setting [1] is 13 µM [falling, partial curve]. For the compound `O=C(COC(=O)CNC(=O)c1ccc(Cl)cc1Cl)NC1CCCCCCC1`, the cell number change is -6.93%. For the same compound, the AC50 under setting [1] was 3.66 µM [falling, single point].

Consider `Cc1ccc(-c2n[nH]c(=S)c3ccccc23)cc1`, for which the cell number change is 7.81%. With `Cc1cccc(OCC(O)Cn2c(NCc3cccnc3)nc3c2c(=O)[nH]c(=O)n3C)c1` (stereo not drawn), the cell number change is 28.6%. Besides, the AC50 under setting [1] was 29.1 µM [rising, single point]. As for `COc1cc(C(=O)Nc2ccc(S(=O)(=O)N3CCc4ccccc43)cc2)cc(OC)c1OC`, the cell number change is -21.8%. In addition, the concentration at half-maximal activity (AC50) under setting [1] was 29.1 µM [falling, single point]. On to `CCCCN=C(C)c1c(O)c2ccccc2oc1=O`, for which the cell number change is -0.0701%. On to `CCc1cc2c(=O)n(Cc3ccco3)c(SCC(=O)N3CCCc4ccccc43)nc2s1`, for which the cell number change was -26.8%. In addition, the AC50 under setting [1] is 7.31 µM [falling, partial curve].

Regarding `CCCCNC(=O)c1cc2c(=O)n3cccc(C)c3nc2n1C`, the AC50 is 6.51 µM [rising, single point] under setting [2] and 2.31 µM [rising, partial curve] under setting [1]. `Cc1ccc(CC(=O)Nc2ccc(C(=O)N3CCOCC3)cc2)cc1`: the cell number change was determined as 6.94%. Moreover, the AC50 under setting [1] is 9.2 µM [rising, partial curve, poor fit]. `Cc1cccc(/C=C/C(=O)c2ccc([N+](=O)[O-])o2)c1`: the cell number change was -11.4%. Besides, under setting [2], the half-maximal activity concentration (AC50) is 2.31 µM [falling, partial curve]. As for `O=C(NC1CCCCC1)C(c1ccc(F)cc1)N(C(=O)c1cccs1)c1ccc2c(c1)OCO2` (stereo not drawn), the cell number change came out at 36.7%. Under setting [2], the AC50 was 9.2 µM [rising, single point]. Under setting [1], the AC50 is 29.1 µM [rising, single point]. Turning to `O=C(Nc1ccc(N2CCOCC2)cc1)c1cccc2c(Br)cccc12`, the cell number change was -5.56%. Turning to `O=C(NCCCN1CCOCC1)c1onc(CSc2nc3ccccc3[nH]2)c1C(=O)NCCCN1CCOCC1`, the cell number change was 9.88%. With `COc1ccccc1OCCn1cc(/C=C(\C#N)C(=O)NCc2cccs2)c2ccccc21`, the cell number change amounted to 4.6%. In addition, under setting [1], the concentration at half-maximal activity (AC50) was 0.13 µM [falling, single point].

Turning to `COc1ccccc1NS(=O)(=O)c1ccc(C)c(C(=O)NCC2(N(C)C)CCCCC2)c1`, the cell number change turned out to be 5.31%. For the same compound, the AC50 under setting [1] was 3.66 µM [rising, single point]. Regarding `COc1cccc(-c2cc3nc(-c4ccccc4)cc(N4CCCC(O)C4)n3n2)c1` (stereo not drawn), the cell number change is -38.8%. Also, under setting [2], the concentration at half-maximal activity (AC50) was 16.4 µM [falling, single point]. Moreover, the concentration at half-maximal activity (AC50) under setting [1] was 16.4 µM [falling, partial curve]. Turning to `COc1cccc(-c2csc3nnc(SCC(=O)c4ccc(NC(C)=O)cc4)n23)c1`, the cell number change is -9.61%. Also, the AC50 under setting [1] is 1.03 µM [rising, full curve]. As to `Cc1ccc(C(=O)NCCc2nnc3ccc(SCC(=O)Nc4ccccc4C)nn23)cc1`, the cell number change worked out at 11.4%. Further, the AC50 under setting [1] was 18.4 µM [rising, partial curve, poor fit]. `CC1CCN(C(=S)NC(=O)C2CCCCC2)CC1`: the cell number change was 68.4%. For the compound `CC(C)(C)CC(C)(C)NC(=S)N1CCN(Cc2ccc3c(c2)OCO3)CC1`, the cell number change was -29.9%. Also, the AC50 under setting [2] was 3.66 µM [falling, full curve, poor fit]. In the case of `CCOC(=O)C1=C(N)OC2=C(C(=O)CCC2)C1c1ccccc1OC` (stereo not drawn), the cell number change is -6.95%. Besides, the AC50 under setting [1] was 0.164 µM [falling, full curve, poor fit]. Consider `Cc1ccc(S(=O)(=O)N2CCN(C(=O)N3CCOCC3)CC2)cc1C`, for which the cell number change amounted to 13.5%. For the same compound, the AC50 under setting [2] is 6.51 µM [rising, single point]. For the same compound, under setting [1], the half-maximal activity concentration (AC50) was 29.1 µM [rising, single point].

With `O=c1cc[nH]c2ccc([N+](=O)[O-])cc12`, the cell number change was -18.8%. For `Cc1noc(C)c1COc1ccc(C(=O)OCc2nnc(-c3ccc(Cl)cc3)o2)cc1`, the cell number change was -8.18%. Consider `CC(=O)Nc1ccc(C(=O)OCc2ccccc2Br)cc1`, for which the cell number change worked out at 12.5%. Take `COc1ccc(S(=O)(=O)NNC(=O)c2csc(-n3nc(C)cc3C(F)(F)F)n2)cc1OC`: the cell number change was -45.4%. Besides, the concentration at half-maximal activity (AC50) under setting [2] was 29.1 µM [falling, single point]. The concentration at half-maximal activity (AC50) under setting [1] was 29.1 µM [falling, single point]. Turning to `Cc1nc(NCCc2ccccc2)c2oc3ccccc3c2n1`, the cell number change is -24.6%. Moreover, the AC50 under setting [1] is 9.2 µM [rising, single point].

Consider `Cc1cccc(NC(=O)N(C)Cc2cccs2)c1`, for which the cell number change is 48.4%. The AC50 under setting [2] was 16.4 µM [rising, single point]. Also, the concentration at half-maximal activity (AC50) under setting [1] is 0.82 µM [falling, single point].

For `Cc1ccc(C(=O)CSc2nc(-c3ccccc3)ccc2C#N)cc1`, the AC50 under setting [2] was 1.64 µM [rising, partial curve] and the AC50 under setting [1] is 1.64 µM [rising, partial curve]. As to `CCOc1ccc(N(CC(=O)NCC2CCCO2)S(=O)(=O)c2ccc(Cl)cc2)cc1` (stereo not drawn), the cell number change was -0.961%. As to `Cn1c(SC2CCCCC2=O)nnc1-c1ccncc1` (stereo not drawn), the cell number change turned out to be 122%. The half-maximal activity concentration (AC50) under setting [1] is 29.1 µM [rising, single point]. Consider `COC(=O)C1C(=O)NCC1c1ccccc1` (stereo not drawn), for which the cell number change was -21%. Further, the half-maximal activity concentration (AC50) under setting [2] was 0.411 µM [falling, full curve, poor fit]. Further, under setting [1], the concentration at half-maximal activity (AC50) is 23.1 µM [falling, partial curve].

Consider `FC(F)Oc1ccc(NC(=S)NCc2ccccc2)cc1Cl`, for which the cell number change is -26.3%. The AC50 under setting [1] is 0.731 µM [rising, single point].

On to `N/C(=N\OC(=O)c1ccc2ccccc2c1)c1cccc([N+](=O)[O-])c1`, for which the cell number change was 4.37%. Under setting [1], the concentration at half-maximal activity (AC50) is 14.6 µM [rising, single point]. Turning to `COc1ccc(C(=O)CC(=O)C(=O)Nc2cc(C)ccc2C)cc1`, the cell number change was 21.3%. Further, the AC50 under setting [1] is 0.231 µM [rising, full curve, poor fit]. On to `COc1ccc(CNC(=O)C(C)NCc2ccc(S(N)(=O)=O)cc2)cc1` (stereo not drawn), for which the cell number change was determined as 20.4%. Regarding `Nc1ccc(C(=O)c2cccs2)cc1`, the cell number change came to 5.54%. For the same compound, the AC50 under setting [1] was 8.2 µM [rising, partial curve]. For `CSc1ccccc1NC(=O)Cc1ccccc1[N+](=O)[O-]`, the cell number change was -19.1%. Moreover, the concentration at half-maximal activity (AC50) under setting [1] was 32.6 µM [falling, single point]. On to `Cc1onc(-c2c(Cl)cccc2Cl)c1NC(=O)NNc1ccccn1`, for which the cell number change was -55.4%. The AC50 under setting [2] is 29.1 µM [falling, single point]. The concentration at half-maximal activity (AC50) under setting [1] is 18.4 µM [falling, single point].

Take `CC(C)(C)C(=O)CN1C(=O)NC(c2ccccc2)(c2ccccc2)C1=O`: the cell number change was 31.7%. Under setting [2], the concentration at half-maximal activity (AC50) was 23.1 µM [rising, partial curve, poor fit]. Also, under setting [1], the AC50 was 1.16 µM [rising, single point]. Consider `CC(C)OCCCNC(=O)c1c(N)n(/N=C/c2ccccn2)c2nc3ccccc3nc12`, for which the cell number change was -1.23%. For the same compound, the concentration at half-maximal activity (AC50) under setting [1] is 0.82 µM [rising, partial curve]. Regarding `CN(C(=O)COC(=O)c1ccccc1C(=O)N1CCN(c2ccccc2)CC1)c1ccccc1`, the cell number change is -21.2%.

In the case of `CCN(Cc1ccccc1)C(=O)C1CCC(CNc2c(N3CCOCC3)c(=O)c2=O)CC1` (stereo not drawn), the cell number change was -21.9%. In addition, the AC50 under setting [1] was 9.2 µM [falling, partial curve, poor fit]. `COc1cc(CN(C)Cc2ccccc2)cc(OC)c1O`: the cell number change turned out to be 49.6%. The AC50 under setting [2] is 16.4 µM [rising, single point]. As for `O/N=C/c1ccn(-c2ccc(Br)cc2)c1`, the cell number change amounted to 30%.

Consider `CCCCn1c(NC(=O)CC)c(C#N)c2nc3ccccc3nc21`, for which the half-maximal activity concentration (AC50) under setting [2] was 2.59 µM [falling, single point] and the concentration at half-maximal activity (AC50) under setting [1] was 6.51 µM [falling, single point].
